Values of other authors, collected in patent US5874464A, “Conformationally constrained diacylglycerol analogues” (The United States of America as represented by the …, priority 1995, dated 1999).

System: tumor graft proliferation
Settings: mouse model; cited from earlier work

## CN[C@@H]1C[C@H]2O[C@@](C)([C@@H]1OC)n1c3ccccc3c3c4c(c5c6ccccc6n2c5c31)C(=O)NC4 [Staurosporine]
  inhibition of tumor graft proliferation: potent inhibitor of tumor graft proliferation
